Consider 13 molecules from PubChem BioAssay AID256 (DTP/NCI, 2004).

For this experiment, the system named is CD2F1 mice, L1210 leukemia ip, survival T/C. The experiment is described as follows: NCI In Vivo Anticancer Drug Screen. Data for tumor model L1210 Leukemia (intraperitoneal) in CD2F1 (CDF1) mice. The following applies: higher T/C = longer survival. Put shortly:
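Read-out first: treated-group measurement over vehicle-control measurement, expressed as a ratio. Animals bore a transplanted tumor line and were dosed with compound or vehicle.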

Where [1] appears, read: T/C endpoint: mean survival time, dose: 400.0 mg/kg/injection, schedule: Q04DX003 (ip), vehicle: saline with Tween-80.

The list shows only some results of the screen, not a fair sample: it gathers tests that were run many times, whatever their T/C, doses with no T/C, and many T/C values between a quarter and a half above the control. Further doses and runs are listed elsewhere. T/C: endpoint of the treated group in % of that of the vehicle group. Some doses have a count of surviving animals in place of a T/C: the source holds a T/C of zero for them, seemingly a mark for toxic or unscored doses. Some doses without a T/C left all or most animals alive at the check, yet need not have been tolerated: the source hardly ever lists a survival T/C far under the control, and the zero likely stands for such cases as well. Survivors were counted at the toxicity check, usually on the fifth day, unless a day is given; later deaths do not show. Schedules are NCI's codes, taken here to give the interval after Q, in days (D) or hours (H), and the number of doses after X. Some doses were run more than once; the values are given in rising order. For survival time, the PubChem record calls one and a half times the control and up active, and a quarter to a half above the control has no call in these data; cut-offs in other NCI protocols can differ. Counts like (3×) count equal records among those shown. Some T/C values are followed by the survivors on the day toxicity was checked, most often the fifth; without a count, all were alive then.

For `CC(CN1CC(=O)NC(=O)C1)N1CC(=O)NC(=O)C1` (centres undefined), the T/C is 136 % of control (T/C endpoint: mean survival time, dose: 16.0 mg/kg/injection, schedule: Q01DX009 (ip), vehicle: saline); 110 (2×), 111, 112, 113 (2×), 124, 128 % of control (T/C endpoint: mean survival time, dose: 50.0 mg/kg/injection, schedule: Q04DX003 (ip), vehicle: saline with Tween-80); 131 % of control (T/C endpoint: mean survival time, dose: 64.0 mg/kg/injection, schedule: Q04DX003 (ip), vehicle: saline); 99 and 120 % of control (T/C endpoint: mean survival time, dose: 100.0 mg/kg/injection, schedule: Q01DX001 (ip), vehicle: saline, evaluated on day 5); 120 % of control (T/C endpoint: mean survival time, dose: 100.0 mg/kg/injection, schedule: Q01DX001 (ip), vehicle: saline, evaluated on day 30); 99 % of control (T/C endpoint: mean survival time, dose: 100.0 mg/kg/injection, schedule: Q01DX001 (ip), vehicle: saline, evaluated on day 60). For the same molecule, the T/C was 108, 110, 117, 120, 130, 131, 148, 151 % of control (T/C endpoint: mean survival time, dose: 100.0 mg/kg/injection, schedule: Q04DX003 (ip), vehicle: saline with Tween-80); 147 % of control (T/C endpoint: mean survival time, dose: 128.0 mg/kg/injection, schedule: Q04DX003 (ip), vehicle: saline); 130 and 133 % of control (T/C endpoint: mean survival time, dose: 200.0 mg/kg/injection, schedule: Q01DX001 (ip), vehicle: saline, evaluated on day 5); 130 % of control (T/C endpoint: mean survival time, dose: 200.0 mg/kg/injection, schedule: Q01DX001 (ip), vehicle: saline, evaluated on day 30); 133 % of control (T/C endpoint: mean survival time, dose: 200.0 mg/kg/injection, schedule: Q01DX001 (ip), vehicle: saline, evaluated on day 60); 107, 129, 148, 177, 183, 193, 203, 209 % of control (T/C endpoint: mean survival time, dose: 200.0 mg/kg/injection, schedule: Q04DX003 (ip), vehicle: saline with Tween-80). Also, the T/C (T/C endpoint: mean survival time, dose: 400.0 mg/kg/injection, schedule: Q01DX001 (ip), vehicle: saline, evaluated on day 5) was 145 and 156 % of control; the T/C (T/C endpoint: mean survival time, dose: 400.0 mg/kg/injection, schedule: Q01DX001 (ip), vehicle: saline, evaluated on day 30) is 156 % of control; the T/C (T/C endpoint: mean survival time, dose: 400.0 mg/kg/injection, schedule: Q01DX001 (ip), vehicle: saline, evaluated on day 60) is 145 % of control; the T/C under setting [1] was 90, 120, 134, 143, 201, 214, 222, 253 % of control; the T/C (T/C endpoint: median survival time, dose: 108.0 mg/kg/injection, schedule: Q04DX003 (ip), vehicle: Klucel (hydroxypropylcellulose) (HPC), evaluated on day 5) was 147 % of control; the T/C (T/C endpoint: median survival time, dose: 108.0 mg/kg/injection, schedule: Q04DX003 (ip), vehicle: Klucel (hydroxypropylcellulose) (HPC), evaluated on day 61) is 147 % of control. Also, the survivor count reads like this: (T/C endpoint: mean survival time, dose: 256.0 mg/kg/injection, schedule: Q01DX009 (ip), vehicle: saline) 10 of 10; (T/C endpoint: mean survival time, dose: 1024.0 mg/kg/injection, schedule: Q04DX003 (ip), vehicle: saline) 6 of 10.

Regarding `NC1CCCCC1N.O=C(Nc1ccc2c(O)cc(S(=O)(=O)[O-])cc2c1)c1ccccc1.O=C(Nc1ccc2c(O)cc(S(=O)(=O)[O-])cc2c1)c1ccccc1.[Pt+4]`, the T/C (T/C endpoint: median survival time, dose: 12.5 mg/kg/injection, schedule: Q04DX003 (ip), vehicle: saline with Tween-80) is 141 % of control. The survivor count is 6 of 6 (T/C endpoint: median survival time, dose: 25.0 mg/kg/injection, schedule: Q04DX003 (ip), vehicle: saline with Tween-80); 5 of 6 (T/C endpoint: median survival time, dose: 50.0 mg/kg/injection, schedule: Q04DX003 (ip), vehicle: saline with Tween-80); 0 of 6 (T/C endpoint: median survival time, dose: 100.0 mg/kg/injection, schedule: Q04DX003 (ip), vehicle: saline with Tween-80); 0 of 6 (T/C endpoint: median survival time, dose: 200.0 mg/kg/injection, schedule: Q04DX003 (ip), vehicle: saline with Tween-80).

On to `Oc1c(O)c(Br)c(Br)c(Br)c1Br`, for which, for the setting “T/C endpoint: mean survival time, dose: 400.0 mg/kg/injection, schedule: Q01DX001 (ip), vehicle: other”, the survivor count is on record as 2 of 6.

For `Nc1nc2ncc(CNc3ccc(C(=O)NC(CCC(=O)O)C(=O)O)cn3)nc2c(=O)[nH]1` (centres undefined), the survivor count by setting is: (T/C endpoint: mean survival time, dose: 150.0 mg/kg/injection, schedule: Q01DX001 (ip), vehicle: other) 2 of 6; (T/C endpoint: mean survival time, dose: 300.0 mg/kg/injection, schedule: Q01DX001 (ip), vehicle: other) 0 of 6.

For the molecule `[O-]c1cc2c3c(c1)c1cc4c(cc1c[n+]3C=C2)OCO4`, the T/C is 132 % of control (T/C endpoint: mean survival time, dose: 12.5 mg/kg/injection, schedule: Q01DX009 (ip), vehicle: water); 134 % of control (T/C endpoint: mean survival time, dose: 25.0 mg/kg/injection, schedule: Q01DX009 (ip), vehicle: water); 130 % of control (T/C endpoint: mean survival time, dose: 50.0 mg/kg/injection, schedule: Q01DX009 (ip), vehicle: water). Further, the survivor count was 4 of 6 (T/C endpoint: mean survival time, dose: 50.0 mg/kg/injection, schedule: Q01DX009 (ip), vehicle: other); 5 of 6 (T/C endpoint: mean survival time, dose: 100.0 mg/kg/injection, schedule: Q01DX009 (ip), vehicle: other); 2 of 6 (T/C endpoint: mean survival time, dose: 100.0 mg/kg/injection, schedule: Q01DX009 (ip), vehicle: water).

Take `CCOC(=O)C(=C=C(C(=O)OCC)C(=O)OCC)C(=O)OCC`: the survivor count was 3 of 3 (T/C endpoint: mean survival time, dose: 25.0 mg/kg/injection, schedule: Q01DX005 (ip), vehicle: saline with Tween-80) and 3 of 3 (T/C endpoint: mean survival time, dose: 100.0 mg/kg/injection, schedule: Q01DX005 (ip), vehicle: saline with Tween-80).

Regarding `O=C(O)/C=C/C(=O)Nc1cccc2ccccc12`, the survivor count under setting [1] is given as 3 of 6.

In the case of `CC(C)=NC(=O)NO.[Cl][Co][Cl]`, the survivor count (T/C endpoint: mean survival time, dose: 38.0 mg/kg/injection, schedule: Q04DX003 (ip), vehicle: saline) was 3 of 6 and the survivor count (T/C endpoint: mean survival time, dose: 150.0 mg/kg/injection, schedule: Q04DX003 (ip), vehicle: saline) is 4 of 6.

As for `O=C(O)c1c(F)c(F)c2c(F)c(F)c(F)c(F)c2c1F`, the survivor count under setting [1] is reported as 1 of 6.

For the molecule `CCOP(=O)(OCC)ON1C(=O)c2cccc3cccc(c23)C1=O`, the survivor count by setting is: (T/C endpoint: mean survival time, dose: 6.25 mg/kg/injection, schedule: Q01DX009 (ip), vehicle: Klucel (hydroxypropylcellulose) (HPC)) 3 of 3; (T/C endpoint: mean survival time, dose: 12.5 mg/kg/injection, schedule: Q01DX009 (ip), vehicle: Klucel (hydroxypropylcellulose) (HPC)) 3 of 3.

For the molecule `CC(=O)OC1C2(CC3N4C(=O)C5(CO)SSC4(CC31O)C(=O)N5C)OC(C)C(C)(C)C2=O` (centres undefined), the survivor count reads like this: (T/C endpoint: mean survival time, dose: 1.25 mg/kg/injection, schedule: Q01DX009 (ip), vehicle: saline with Tween-80) 3 of 6; (T/C endpoint: mean survival time, dose: 2.5 mg/kg/injection, schedule: Q01DX009 (ip), vehicle: saline) 4 of 6; (T/C endpoint: mean survival time, dose: 5.0 mg/kg/injection, schedule: Q01DX009 (ip), vehicle: saline) 1 of 6 and 2 of 6; (T/C endpoint: mean survival time, dose: 10.0 mg/kg/injection, schedule: Q01DX009 (ip), vehicle: saline) 0 of 6.

For the molecule `CO[C@@]12[C@@H]3N[C@@H]3CN1C1=C(C(=O)C(NCCN(C)C)=C(C)C1=O)[C@@H]2COC(N)=O`, the T/C was 134 % of control (T/C endpoint: mean survival time, dose: 6.0 mg/kg/injection, schedule: Q01DX001 (ip), vehicle: distilled water + Tween-80); 146 % of control (T/C endpoint: mean survival time, dose: 12.0 mg/kg/injection, schedule: Q01DX001 (ip), vehicle: distilled water + Tween-80); 136 % of control (T/C endpoint: mean survival time, dose: 12.0 mg/kg/injection, schedule: Q01DX001 (ip), vehicle: water).

Regarding `Cc1nc(C(Cl)(Cl)Cl)[nH]c(=O)c1SCCO`, the T/C reads like this: (T/C endpoint: median survival time, dose: 50.0 mg/kg/injection, schedule: Q01DX009 (ip), vehicle: distilled water + alcohol) 97, 101, 102, 109 % of control; (T/C endpoint: median survival time, dose: 100.0 mg/kg/injection, schedule: Q01DX009 (ip), vehicle: distilled water + alcohol) 101, 105, 110, 113 % of control; (T/C endpoint: median survival time, dose: 200.0 mg/kg/injection, schedule: Q01DX009 (ip), vehicle: distilled water + alcohol) 100, 106, 121, 126 % of control; (T/C endpoint: median survival time, dose: 400.0 mg/kg/injection, schedule: Q01DX009 (ip), vehicle: distilled water + alcohol) 104 [5 of 6 alive], 117 [4 of 6 alive], 137 [4 of 6 alive], 162 % of control [5 of 6 alive]. Further, the survivor count (T/C endpoint: median survival time, dose: 400.0 mg/kg/injection, schedule: Q01DX009 (sc), vehicle: distilled water + Tween-80 + alcohol) is on record as 3 of 6.
